Patent US20150045310A1
No constants are given. Whether binding was seen depends on the method and setting. Some entries that bind do so weakly or less than the wild type.

Amino acid sequences for entries named in this document (tags omitted). Residues count along the entry.
UniProt Q07820, residues 171-327: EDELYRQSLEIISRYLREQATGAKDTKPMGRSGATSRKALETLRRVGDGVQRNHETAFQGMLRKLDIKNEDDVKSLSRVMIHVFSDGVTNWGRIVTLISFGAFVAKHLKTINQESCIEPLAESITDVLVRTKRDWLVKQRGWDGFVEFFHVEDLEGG
UniProt Q07817, residues 1-209: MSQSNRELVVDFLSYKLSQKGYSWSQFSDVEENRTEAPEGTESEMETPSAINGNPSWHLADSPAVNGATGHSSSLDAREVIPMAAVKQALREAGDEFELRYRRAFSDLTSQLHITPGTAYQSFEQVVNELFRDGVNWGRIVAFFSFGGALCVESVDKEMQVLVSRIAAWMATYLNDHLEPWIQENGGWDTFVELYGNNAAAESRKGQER
UniProt P10415, residues 1-217: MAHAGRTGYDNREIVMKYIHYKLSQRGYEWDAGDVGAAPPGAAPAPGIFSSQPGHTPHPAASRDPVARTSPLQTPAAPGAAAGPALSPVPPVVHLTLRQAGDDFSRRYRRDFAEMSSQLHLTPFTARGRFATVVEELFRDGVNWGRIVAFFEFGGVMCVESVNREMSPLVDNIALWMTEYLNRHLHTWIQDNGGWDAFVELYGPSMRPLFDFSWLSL

T1: Bcl-w (biotinylated pro-survival Bcl-2 family protein) (UniProt Q92843)
T1 sequence (biotinylated (co-expressed E. coli biotin ligase BirA), looked up): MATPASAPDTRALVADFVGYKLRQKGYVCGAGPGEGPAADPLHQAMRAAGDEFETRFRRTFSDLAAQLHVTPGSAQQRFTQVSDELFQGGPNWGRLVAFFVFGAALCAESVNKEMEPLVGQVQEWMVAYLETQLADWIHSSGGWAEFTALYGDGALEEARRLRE


molecular target: Mcl-1 (biotinylated pro-survival Bcl-2 family protein) (UniProt Q07820); test: flow cytometry of individual M2 clones on E. coli, 1.25 nM Mcl-1

Row | Binder | binding
1 | WLAQLLRRIGDEIN (peptide, not shown: large carriers; small tags and cut ends) [Bim BH3 14-mer variant M2-4 displayed on eCPX] | binds
2 | WMAQILRRIGDEVN (peptide, not shown: large carriers; small tags and cut ends) [Bim BH3 14-mer variant M2-3 displayed on eCPX] | binds
3 | WLAQELRRIGDEVN (peptide, not shown: large carriers; small tags and cut ends) [Bim BH3 14-mer variant M2-8 displayed on eCPX] | binds
4 | WIAQLLRRIGDEVN (peptide, not shown: large carriers; small tags and cut ends) [Bim BH3 14-mer variant M2-1 displayed on eCPX] | binds
5 | WVAQLLRRIGDEVN (peptide, not shown: large carriers; small tags and cut ends) [Bim BH3 14-mer variant M2-2 displayed on eCPX] | binds

molecular target: Bcl-xL (biotinylated pro-survival Bcl-2 family protein) (UniProt Q07817); test: flow cytometry of individual X2 clones on E. coli, 6.25 nM Bcl-xL

Row | Binder | binding
6 | WVAQWLRRWGDEFN (peptide, not shown: large carriers; small tags and cut ends) [Bim BH3 14-mer variant X2-3 displayed on eCPX] | binds
7 | WVAQTLRRWGDEFN (peptide, not shown: large carriers; small tags and cut ends) [Bim BH3 14-mer variant X2-10 displayed on eCPX] | binds
8 | WLAQLLRRYGDEFN (peptide, not shown: large carriers; small tags and cut ends) [Bim BH3 14-mer variant X2-8 displayed on eCPX] | binds
9 | WIAQILRRWGDEFN (peptide, not shown: large carriers; small tags and cut ends) [Bim BH3 14-mer variant X2-9 displayed on eCPX] | binds
10 | WYAQILRRMGDEFN (peptide, not shown: large carriers; small tags and cut ends) [Bim BH3 14-mer variant X2-5 displayed on eCPX] | binds

molecular target: Bcl-2 (biotinylated pro-survival Bcl-2 family protein) (UniProt P10415); test: apparent Kd, bacterial surface display and flow cytometry

Row | Binder | binding
11 | WLAQLLRRIGDEIN (peptide, not shown: large carriers; small tags and cut ends) [Bim BH3 14-mer variant M2-4 displayed on eCPX] | binds
12 | WVAQWLRRWGDEFN (peptide, not shown: large carriers; small tags and cut ends) [Bim BH3 14-mer variant X2-3 displayed on eCPX] | binds
13 | WLAQLLRRYGDEFN (peptide, not shown: large carriers; small tags and cut ends) [Bim BH3 14-mer variant X2-8 displayed on eCPX] | binds

molecular target: Bcl-xL (biotinylated pro-survival Bcl-2 family protein) (UniProt Q07817); test: as above

Row | Binder | binding
14 | WLAQLLRRIGDEIN (peptide, not shown: large carriers; small tags and cut ends) [Bim BH3 14-mer variant M2-4 displayed on eCPX] | binds
15 | WVAQWLRRWGDEFN (peptide, not shown: large carriers; small tags and cut ends) [Bim BH3 14-mer variant X2-3 displayed on eCPX] | binds
16 | WIAQTLRRIGDEFN (peptide, not shown: large carriers; small tags and cut ends) [Bim BH3 14-mer E151T displayed on eCPX] | binds
17 | WLAQLLRRYGDEFN (peptide, not shown: large carriers; small tags and cut ends) [Bim BH3 14-mer variant X2-8 displayed on eCPX] | binds
18 | WIAQILRRIGDEFN (peptide, not shown: large carriers; small tags and cut ends) [Bim BH3 14-mer E151I displayed on eCPX] | binds
19 | WIAQLLRRIGDEFN (peptide, not shown: large carriers; small tags and cut ends) [Bim BH3 14-mer E151L displayed on eCPX] | binds
20 | WIAQWLRRIGDEFN (peptide, not shown: large carriers; small tags and cut ends) [Bim BH3 14-mer E151W displayed on eCPX] | binds

molecular target: T1, Bcl-w (biotinylated pro-survival Bcl-2 family protein); test: as above

Row | Binder | binding
21 | WLAQLLRRIGDEIN (peptide, not shown: large carriers; small tags and cut ends) [Bim BH3 14-mer variant M2-4 displayed on eCPX] | binds
22 | WVAQWLRRWGDEFN (peptide, not shown: large carriers; small tags and cut ends) [Bim BH3 14-mer variant X2-3 displayed on eCPX] | binds
23 | WLAQLLRRYGDEFN (peptide, not shown: large carriers; small tags and cut ends) [Bim BH3 14-mer variant X2-8 displayed on eCPX] | binds

molecular target: Mcl-1 (biotinylated pro-survival Bcl-2 family protein) (UniProt Q07820); test: as above

Row | Binder | binding
24 | WLAQLLRRIGDEIN (peptide, not shown: large carriers; small tags and cut ends) [Bim BH3 14-mer variant M2-4 displayed on eCPX] | binds
25 | WVAQWLRRWGDEFN (peptide, not shown: large carriers; small tags and cut ends) [Bim BH3 14-mer variant X2-3 displayed on eCPX] | binds
26 | WIAQTLRRIGDEFN (peptide, not shown: large carriers; small tags and cut ends) [Bim BH3 14-mer E151T displayed on eCPX] | binds
27 | WLAQLLRRYGDEFN (peptide, not shown: large carriers; small tags and cut ends) [Bim BH3 14-mer variant X2-8 displayed on eCPX] | binds
28 | WIAQWLRRIGDEFN (peptide, not shown: large carriers; small tags and cut ends) [Bim BH3 14-mer E151W displayed on eCPX] | binds
29 | WVAQLLRRIGDEVN (peptide, not shown: large carriers; small tags and cut ends) [Bim BH3 14-mer variant M2-2 displayed on eCPX] | binds
